From the supplement of paper PMC10338343 come the findings set out here.

± gives the standard deviation. The entries are a selection whose mix differs from that of the whole data set. Many entries were measured with a wide error.
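Further: 1 nM active piRISC with 0.1 nM target library at 33 °C single turnover.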

In this assay the test system is MIWI (PIWIL1) piRISC loaded with piRNA #1 (30 nt). The assay can be described thus: pre-steady-state target cleavage rate (min^-1); MIWI and MILI are mouse PIWI proteins and EfPiwi is from a freshwater sponge; tags in brackets are library labels; higher = faster piRNA-guided slicing of the target. Particulars: guide: piRNA #1 5'p-UGAGGUAGUAGGUUGUAUAGUAUCCAGAGG; auxiliary factor: 500 nM mouse GTSF1. In outline:
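The pre-steady-state cleavage rate was derived from a burst-and-steady-state fit of Cleave-'n-Seq data. For these assays, 1 nM active affinity-purified piRISC loaded with a single synthetic guide was mixed with […] a transcribed, DNA-blocked target RNA library in HEPES–potassium acetate buffer at 33 °C, with or without 500 nM GTSF1 partner protein, for 0–8 or 0–960 min. Sequencing counts of uncleaved targets were normalised to depth and to weakly complementary targets, and k3 was capped at 0.0001 min^-1 after three trials were pooled.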
In the case of CCUCUGGAUAGUAUACAACGUACUACCUCA, the “pre-steady-state target cleavage rate” value came out at 0.0367 ± 0.011.

Take CCUCUGCAUUCUAUACAACCUACUACCUCA: the “pre-steady-state target cleavage rate” value is 2.13 ± 0.13.

As for “CCUCUGGAUACUAUACAACCAUGAUGGAGA [g11:g30:cont:t1A]”, the “pre-steady-state target cleavage rate” value turned out to be 0.00303 ± 0.0049. The same measure for GGAGACCUAUGAUAACAAGCCUACUACCUCA: 0.000305 ± 0.018; for GGAGACCUAUGAUAUGUUGCUACUUGCUCA: 0.000726 ± 0.007; for “GCUCUGGAUACUAUACAACGAUGAUGGAGA [g12:g29:cont:t1A]”: 0.000158 ± 0.033. As for GGAGACCUAUGUUUACAACCUACAACCUCA, the “pre-steady-state target cleavage rate” value was 0.00129 ± 0.003. As to GCUCAGGAAACUAUACAACCUACUACCUCA, the “pre-steady-state target cleavage rate” value was found to be 1.78 ± 0.1.

Consider GGACUAGAUACUAUACAACCUACUACCUCA, for which the “pre-steady-state target cleavage rate” value came out at 1.77 ± 0.1.

In the case of GGAGACCUAUGAAUACAACCUGCUACCUCA, the “pre-steady-state target cleavage rate” value is 0.00136 ± 0.0032. In the case of CCUCUGGAUACUAUACAACCUACUACCUA, the “pre-steady-state target cleavage rate” value was determined as 1.52 ± 0.096. On to GGACUGGAUACUAUACAACCUUACUACCUCA, for which the “pre-steady-state target cleavage rate” value was found to be 0.00316 ± 0.0039. As to GGAGACCUAUGUAUACAAGCAACUACCUCA, the “pre-steady-state target cleavage rate” value was 0.000797 ± 0.006.

Turning to GGAGACCUAUGAAUACAACCUACUACCUUA, the “pre-steady-state target cleavage rate” value worked out at 0.00176 ± 0.0038. Then GGUCUGGAUACUAUACAACCUGACUACCUCA, with 0.00228 ± 0.0023. Regarding GGAGACGAUACUAUACAACCAUACUACCUCA, the “pre-steady-state target cleavage rate” value was 0.00194 ± 0.0054. Take GGACUGGAUACUAUACAACCCUACUACCUCA: the “pre-steady-state target cleavage rate” value worked out at 0.000192 ± 0.022. The same measure for GGUCUGGUACUAUACAACCUACUACCUCA: 1.73 ± 0.11; for GGAGACCUAUGAUUACAACCUACUACACUCA: 0.00214 ± 0.0034. As for GGACUCGAUACAAUACAACCUACUACCUCA, the “pre-steady-state target cleavage rate” value amounted to 1.46 ± 0.095. The same measure for CCUCUGGAUACUAAACAACCUACUACGUCA: 1.49 ± 0.087; for GGACUGGAUACUUAUCAACCUACUACCUCA: 0.719 ± 0.1; for GGAGACCUAUGAUUACAACCUACUAACCUCA: 0.00152 ± 0.0045. As for “GCUCUGGAUACUAUACAUGGAUGAUGGAGA [g14:g29:cont:t1A]”, the “pre-steady-state target cleavage rate” value turned out to be 0.000257 ± 0.025. Then GGAGACCUAUGAAUACAACCUAACUACCUCA, with 0.000864 ± 0.0031.

CCUGACGAUACUAUACAACCUACUACCUCA: the “pre-steady-state target cleavage rate” value turned out to be 2.06 ± 0.12.

With GGAGAGGAAACAAUACAACCUACUACCUCA, the “pre-steady-state target cleavage rate” value was determined as 0.95 ± 0.079. The same measure for GGAGACCUAUCUAUACAACCGUACUACCUCA: 0.00156 ± 0.0047; for CCUCUGGAUACUAUCAACCUACUACCUCA: 1.82 ± 0.12; for GCUGUGCAUACUAUACAACCUACUACCUCA: 1.91 ± 0.12. With GGAGAGCAUACUAUACAACGUACUACCUCA, the “pre-steady-state target cleavage rate” value was found to be 0.557 ± 0.036.

Turning to GGAGACCUAUGAUUAUAACCUACUACCUCA, the “pre-steady-state target cleavage rate” value turned out to be 0.00184 ± 0.004. Then GGUCUGAGAUACUAUACAACCUACUACCUCA, with 1.89 ± 0.11.

On to GGUCUGGAUACUAUACAACUUACUACCUCA, for which the “pre-steady-state target cleavage rate” value was found to be 0.481 ± 0.028. For the sequence CCUCUGGAUACUAUACAACCACUACCUCA, the “pre-steady-state target cleavage rate” value turned out to be 0.033 ± 0.0096. With GGUCUGGAAACUAUUCAACCUACUACCUCA, the “pre-steady-state target cleavage rate” value was found to be 1.58 ± 0.096. In the case of GGAGACCUAUGUAUACAACGUAGUACCUCA, the “pre-steady-state target cleavage rate” value turned out to be 0.00118 ± 0.004. Regarding GCUCUGGAUACUAUACAACCUACUACUCA, the “pre-steady-state target cleavage rate” value was 1.64 ± 0.14.

Turning to GGAGACCUAUGUAUACAACCUACAACCACA, the “pre-steady-state target cleavage rate” value was found to be 0.00243 ± 0.0026. Then CCUCUGGAUACUAAACAACCUACAACCUCA, with 1.48 ± 0.12.
